Assay results as given in patent US6943171B2, “Polycyclic guanine derivative phosphodiesterase V inhibitors” (Schering Corporation, priority 2001, dated 2005).
“And” between values parts separate entries of the source, which are not always exact repeats. Identical values can stand only once. Some of these results come from one statement about several compounds together.

Experiments:
PDE V isoenzyme = PDE V isoenzyme (Homo sapiens, UniProt O76074); test: PDE V isoenzyme inhibition (PDE V IC50); type: biochemical; details: for IC50: bound printed as 'about <'; for ratio of PDE VI IC50/PDE V IC50: selection ratio, PDE V selectivity over PDE VI, bound printed as 'about >'
Source text: The compounds of the invention can be useful for inhibiting PDE V isoenzymes. Isoenzyme activity (potency) and isoenzyme selectivity for a compound can be evaluated in a number of ways. […] Similarly, an IC50 value may be obtained for other PDE isoenzymes, such as the PDE VI isoenzyme. Isoenzyme selectivity in this respect may be defined as the activity (potency) of a PDE inhibitor compound for a particular PDE isoenzyme as opposed to another PDE isoenzyme, for example, the activity of a compound to inhibit a PDE V isoenzyme compared to the activity of the same compound to inhibit a PDE VI isoenzyme.

PDE VI isoenzyme = PDE VI isoenzyme inhibition (PDE VI IC50); type: biochemical; details: bound printed as 'about >'

Question: `CCN1C(=O)c2c(nc(Br)n2Cc2ccc(O)c(Cl)c2)N2C[C@@H](Cc3ccccc3)N=C12` [Compound 12] was tested. Which IC50 (PDE V isoenzyme) did it give?
Answer: < 0.022 µM

Question: Which results are given for `CCN1C(=O)c2c(nc(C(=O)NC)n2Cc2ccc(O)c(Cl)c2)N2C[C@@H](Cc3ccccc3)N=C12` [Compound 9]?
Answer: IC50 (PDE V isoenzyme): < 0.022 µM; ratio of PDE VI IC50/PDE V IC50 (PDE V isoenzyme): > 90 and > 70

Question: With `CCN1C(=O)c2nc(Cl)n(Cc3cccc(O)c3)c2N2CC3(CCCC3)N=C12` [Compound 25] as the compound, how does the IC50 (PDE V isoenzyme) read?
Answer: < 0.022 µM

Question: What about the “ratio of PDE VI IC50/PDE V IC50” value (PDE V isoenzyme) of the same compound?
Answer: > 90 and > 70

Question: How did the IC50 (PDE V isoenzyme) turn out when `CCN1C(=O)c2c(nc(C(=O)OC)n2Cc2ccc(O)c(Cl)c2)N2C[C@@H](Cc3ccccc3)N=C12` [Compound 11] was run?
Answer: < 0.022 µM

Question: Which IC50 (PDE V isoenzyme) does the source give for `CCN1C(=O)c2c(nc(Br)n2Cc2ccc(OC)c(Br)c2)N2C[C@@H](Cc3ccccc3)N=C12` [Compound 1.3.2] here?
Answer: < 0.022 µM

Question: What about the “ratio of PDE VI IC50/PDE V IC50” value (PDE V isoenzyme) of the same compound?
Answer: > 90 and > 70

Question: How did the IC50 (PDE V isoenzyme) turn out when `CCN1C(=O)c2c(nc(Br)n2Cc2ccc(O)c(Cl)c2)N2C[C@@H](Cc3ccc(F)cc3)N=C12` [Compound 21] was run?
Answer: < 0.022 µM

Question: Which IC50 (PDE V isoenzyme) does the source give for `CCN1C(=O)c2nc(I)n(Cc3cccc(O)c3)c2N2CC3(CCCC3)N=C12` [Compound 26] here?
Answer: < 0.022 µM

Question: And the “ratio of PDE VI IC50/PDE V IC50” value (PDE V isoenzyme)?
Answer: > 90 and > 70

Question: Which IC50 (PDE V isoenzyme) does the source give for `CCN1C(=O)c2c(nc(Br)n2Cc2ccc(O)c(Br)c2)N2C[C@@H](Cc3ccccc3)N=C12` [Compound 13] here?
Answer: < 0.022 µM

Question: `CCN1C(=O)c2c(nc(Br)n2Cc2ccc(O)c(Br)c2)N2C[C@@H](Cc3cccc(F)c3)N=C12` [Compound 23] was tested. Which IC50 (PDE V isoenzyme) did it give?
Answer: < 0.022 µM

Question: For `CCOc1nc2c(n1Cc1cc(Cl)c(OC)c(Cl)c1)C(=O)N(CC)C1=NC3(CCCC3)CN12` [Compound 20], which IC50 (PDE V isoenzyme) is on record?
Answer: < 0.022 µM

Question: And the “ratio of PDE VI IC50/PDE V IC50” value (PDE V isoenzyme)?
Answer: > 90 and > 70

Question: Which IC50 (PDE V isoenzyme) does the source give for `CCN1C(=O)c2c(nc(Br)n2Cc2ccc(O)c(C)c2)N2C[C@@H](Cc3ccccc3)N=C12` [Compound 14] here?
Answer: < 0.022 µM

Question: And the “ratio of PDE VI IC50/PDE V IC50” value (PDE V isoenzyme)?
Answer: > 70

Question: What does the source list for `CCN1C(=O)c2c(nc(OC)n2Cc2ccc(O)cc2)N2C[C@@H](Cc3ccccc3)N=C12` [Compound 8]?
Answer: IC50 (PDE V isoenzyme): < 0.022 µM; ratio of PDE VI IC50/PDE V IC50 (PDE V isoenzyme): > 90 and > 70

Question: Which IC50 (PDE V isoenzyme) does the source give for `CCOc1nc2c(n1Cc1ccc(OC)c(Br)c1)C(=O)N(CC)C1=N[C@H](Cc3cccc(F)c3)CN12` [Compound 24] here?
Answer: < 0.022 µM

Question: What about the “ratio of PDE VI IC50/PDE V IC50” value (PDE V isoenzyme) of the same compound?
Answer: > 90 and > 70

Question: How did the IC50 (PDE V isoenzyme) turn out when `CCOc1nc2c(n1Cc1ccc(O)c(Br)c1)C(=O)N(CC)C1=N[C@H](Cc3ccccc3F)CN12` [Compound 22] was run?
Answer: < 0.022 µM

Question: What about the “ratio of PDE VI IC50/PDE V IC50” value (PDE V isoenzyme) of the same compound?
Answer: > 90 and > 70

Question: For `CCN1C(=O)c2c(nc(Cl)n2Cc2ccc(O)cc2)N2C[C@@H](Cc3ccccc3)N=C12` [Compound 15], which IC50 (PDE VI isoenzyme) is on record?
Answer: > 0.125 µM

Question: What about the “ratio of PDE VI IC50/PDE V IC50” value (PDE V isoenzyme) of the same compound?
Answer: > 90 and > 70

Question: `CCN1C(=O)c2c(nc(OC)n2Cc2ccc(OC)c(Br)c2)N2C[C@@H](Cc3ccccc3)N=C12` [Compound 3] was tested. Which “ratio of PDE VI IC50/PDE V IC50” value (PDE V isoenzyme) did it give?
Answer: > 90 and > 70

Question: How did the IC50 (PDE V isoenzyme) turn out when `CCOc1nc2c(n1Cc1ccc(OC)c(Cl)c1)C(=O)N(CC)C1=N[C@H](Cc3ccccc3)CN12` [Compound 1] was run?
Answer: < 0.022 µM

Question: `CCN1C(=O)c2nc(Cl)n(Cc3ccc(O)cc3)c2N2CC3(CCCC3)N=C12` [Compound 27] was tested. Which IC50 (PDE V isoenzyme) did it give?
Answer: < 0.022 µM

Question: And the “ratio of PDE VI IC50/PDE V IC50” value (PDE V isoenzyme)?
Answer: > 90 and > 70

Question: With `CCSc1nc2c(n1Cc1ccc(O)c(Cl)c1)C(=O)N(CC)C1=N[C@H](Cc3ccccc3)CN12` [Compound 7] as the compound, how does the IC50 (PDE V isoenzyme) read?
Answer: < 0.022 µM

Question: And the “ratio of PDE VI IC50/PDE V IC50” value (PDE V isoenzyme)?
Answer: > 90 and > 70

Question: With `CCN1C(=O)c2c(nc(Br)n2Cc2ccc(O)c(Br)c2)N2C1=N[C@@H]1CCC[C@@H]12` [Compound 4] as the compound, how does the IC50 (PDE VI isoenzyme) read?
Answer: > 0.125 µM

Question: And the “ratio of PDE VI IC50/PDE V IC50” value (PDE V isoenzyme)?
Answer: > 90 and > 70
